Article PMC7531848

Amino acid sequences for entries named in this document (tags omitted). A change or cut given only in a name is not applied to a line headed by its entry.
UniProt C4LZL4: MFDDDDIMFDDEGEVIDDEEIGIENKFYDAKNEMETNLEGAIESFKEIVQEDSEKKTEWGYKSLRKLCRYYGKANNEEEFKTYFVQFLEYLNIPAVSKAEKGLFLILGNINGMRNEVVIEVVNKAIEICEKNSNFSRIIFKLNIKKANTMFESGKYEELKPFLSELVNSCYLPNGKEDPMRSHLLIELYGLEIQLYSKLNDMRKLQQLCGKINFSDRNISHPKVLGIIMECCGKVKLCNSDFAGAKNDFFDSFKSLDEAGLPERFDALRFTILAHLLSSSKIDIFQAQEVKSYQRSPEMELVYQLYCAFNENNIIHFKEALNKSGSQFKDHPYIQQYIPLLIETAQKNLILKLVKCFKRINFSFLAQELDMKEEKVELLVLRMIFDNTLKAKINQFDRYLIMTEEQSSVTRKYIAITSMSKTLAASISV
UniProt C4LVK0: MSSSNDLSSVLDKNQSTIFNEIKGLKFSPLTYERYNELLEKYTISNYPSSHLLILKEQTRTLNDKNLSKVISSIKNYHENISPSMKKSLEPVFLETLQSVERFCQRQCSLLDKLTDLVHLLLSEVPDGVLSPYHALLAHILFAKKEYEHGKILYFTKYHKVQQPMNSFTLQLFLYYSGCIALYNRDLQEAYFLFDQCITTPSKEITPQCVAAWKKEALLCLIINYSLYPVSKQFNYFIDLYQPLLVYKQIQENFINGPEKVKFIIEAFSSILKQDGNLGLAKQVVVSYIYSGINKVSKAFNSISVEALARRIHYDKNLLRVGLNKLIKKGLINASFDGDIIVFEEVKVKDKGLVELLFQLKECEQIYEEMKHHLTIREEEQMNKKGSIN
UniProt C4LU38: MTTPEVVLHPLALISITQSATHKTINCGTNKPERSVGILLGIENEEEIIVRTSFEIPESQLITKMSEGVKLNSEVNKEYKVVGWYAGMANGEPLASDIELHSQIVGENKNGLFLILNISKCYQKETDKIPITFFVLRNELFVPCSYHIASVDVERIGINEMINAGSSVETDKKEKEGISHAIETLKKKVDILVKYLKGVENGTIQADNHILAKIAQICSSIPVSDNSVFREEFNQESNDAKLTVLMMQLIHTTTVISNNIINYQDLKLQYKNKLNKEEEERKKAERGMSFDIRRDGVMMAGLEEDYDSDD
UniProt Q8WQ58: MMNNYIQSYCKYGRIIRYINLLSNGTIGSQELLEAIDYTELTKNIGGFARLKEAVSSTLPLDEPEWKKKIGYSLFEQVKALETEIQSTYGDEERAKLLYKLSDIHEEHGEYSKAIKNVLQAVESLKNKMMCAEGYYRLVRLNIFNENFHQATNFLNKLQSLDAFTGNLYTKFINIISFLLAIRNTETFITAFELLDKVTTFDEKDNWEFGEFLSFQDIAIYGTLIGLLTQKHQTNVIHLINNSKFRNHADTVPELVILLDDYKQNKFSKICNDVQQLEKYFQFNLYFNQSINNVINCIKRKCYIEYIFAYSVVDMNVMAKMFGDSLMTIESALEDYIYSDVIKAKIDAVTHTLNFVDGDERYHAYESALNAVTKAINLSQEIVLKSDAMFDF

What follows are substances tested against Flag tagged E. histolytica COP9 signalosome subunit 2 (Flag-CSN2) (E. histolytica) (UniProt C4LZL4) (assay: affinity purification with mass spectrometry; lysate of E. histolytica expressing Flag-CSN2 incubated with rabbit anti-Flag magnetic agarose overnight at 4°C, eluted with 1.5 mg/mL 3X Flag peptide; label-free quantification against the vector control).
For “E. histolytica COP9 signalosome subunit 3 (CSN3) (from UniProt C4LVK0)”, the binding was “binds”. For “E. histolytica COP9 signalosome subunit 6 (CSN6) (from UniProt C4LU38)”, the binding was “binds”. In the case of “E. histolytica COP9 signalosome subunit 1 (CSN1) (from UniProt Q8WQ58)”, the binding is reported as “binds”.

Results are given in words; binding and its absence hold for the method and conditions named. In cells and extracts the contact can be indirect. Here binding means that the protein was enriched with, or labelled near, the bait; the list need not be complete.
